PubChem BioAssay AID1259254, NCATS | 2017
Shown is an unselected part of about 59,000 reagents tested. About 1,550 of all reagents (2.6%) were called active. 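G2 share is only a proxy for re-replication; each gene was hit by three separate siRNAs, and active genes were retested.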 Not all columns of the deposit are shown. Reagent sequences are not shown. The record does not give: the amount of reagent.

Test: 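Finding genes that stop cells copying their DNA twice in one cycle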 (primary screen)
System: human HCT116 colorectal cancer cells
Reagents: single siRNA against human genes
Time to read-out: 3 days
Measurement: 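Imaged Hoechst DNA stain sorts each cell into a cycle phase by DNA amount; per plate, G2 fraction set to 0% for non-targeting and 100% for GMNN siRNA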
Scale: G2 robust z-score: higher = more G2 cells, more excess DNA replication
Rule for the call: 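An siRNA counts as active if its G2 robust z-score lies at least 5 MADs above the screen median; here such calls match roughly 38% of GMNN control or more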

gene knocked down | PubChem SID | G2 robust z-score | outcome
GON7 (GeneID 84520) | SID160752351 | 0.787 | inactive
GON7 (GeneID 84520) | SID160752352 | -0.642 | inactive
GON7 (GeneID 84520) | SID160752353 | 1.29 | inactive
ALKBH5 (GeneID 54890) | SID160742421 | 1.42 | inactive
ALKBH5 (GeneID 54890) | SID160742422 | -0.596 | inactive
ALKBH5 (GeneID 54890) | SID160742423 | -0.984 | inactive
PGR (GeneID 5241) | SID160714226 | -1.16 | inactive
PGR (GeneID 5241) | SID160714227 | 0.567 | inactive
PGR (GeneID 5241) | SID160714228 | 1.23 | inactive
INTS12 (GeneID 57117) | SID160745633 | -1.37 | inactive
INTS12 (GeneID 57117) | SID160745634 | 2.18 | inactive
INTS12 (GeneID 57117) | SID160745635 | 1.02 | inactive
GPX1 (GeneID 2876) | SID160776463 | -0.989 | inactive
GPX1 (GeneID 2876) | SID160776474 | -0.192 | inactive
GPX1 (GeneID 2876) | SID160776484 | 4.91 | inactive
FOXD1 (GeneID 2297) | SID160766014 | 1.06 | inactive
FOXD1 (GeneID 2297) | SID160766025 | -0.757 | inactive
FOXD1 (GeneID 2297) | SID160766036 | 6.38 | active
S100A11P1 (GeneID 729659) | SID160734595 | 0.81 | inactive
S100A11P1 (GeneID 729659) | SID160773029 | -0.525 | inactive
S100A11P1 (GeneID 729659) | SID160773030 | -0.759 | inactive
CD9 (GeneID 928) | SID160738528 | 1.56 | inactive
CD9 (GeneID 928) | SID160738538 | -0.273 | inactive
CD9 (GeneID 928) | SID160738549 | 2.11 | inactive
LINC02872 (GeneID 401535) | SID160767315 | -0.714 | inactive
LINC02872 (GeneID 401535) | SID160767316 | 0.188 | inactive
LINC02872 (GeneID 401535) | SID160767317 | -0.597 | inactive
DUS2 (GeneID 54920) | SID160742496 | -0.153 | inactive
DUS2 (GeneID 54920) | SID160742497 | -0.0142 | inactive
DUS2 (GeneID 54920) | SID160742498 | 0.995 | inactive

Entries listed so far with an active call, once more:
gene knocked down | PubChem SID | G2 robust z-score | outcome
FOXD1 (GeneID 2297) | SID160766036 | 6.38 | active

The list goes on:
gene knocked down | PubChem SID | G2 robust z-score | outcome
FBXO34 (GeneID 55030) | SID160742784 | 1.48 | inactive
FBXO34 (GeneID 55030) | SID160742785 | 0.507 | inactive
FBXO34 (GeneID 55030) | SID160742786 | 0.0899 | inactive
LINC01587 (GeneID 10141) | SID160725957 | 1.07 | inactive
LINC01587 (GeneID 10141) | SID160725970 | -0.454 | inactive
LINC01587 (GeneID 10141) | SID160732265 | -1.15 | inactive
UGCG (GeneID 7357) | SID160718592 | -0.235 | inactive
UGCG (GeneID 7357) | SID160718593 | 4.15 | inactive
UGCG (GeneID 7357) | SID160718594 | 0.436 | inactive
RNF182 (GeneID 221687) | SID160761738 | 0.452 | inactive
RNF182 (GeneID 221687) | SID160761739 | -0.546 | inactive
RNF182 (GeneID 221687) | SID160761740 | -0.0351 | inactive
APOF (GeneID 319) | SID160718116 | 0.849 | inactive
APOF (GeneID 319) | SID160718126 | 0.0222 | inactive
APOF (GeneID 319) | SID160718138 | -0.905 | inactive
ZNF746 (GeneID 155061) | SID160730662 | 0.32 | inactive
ZNF746 (GeneID 155061) | SID160759482 | 2.52 | inactive
ZNF746 (GeneID 155061) | SID160759483 | -0.267 | inactive
